# Results from PubChem BioAssay AID2685 (National Center for Advancing Translational Sciences (NCATS), 2010).
# The other results are listed elsewhere or left out. Shown are side measurements of this screen, not its main read-out; they come without a call. The list favours compounds with an active or inconclusive main result. Words in brackets tell the shape of the fitted curve; partial curves, single points and poor fits give uncertain potencies.
# Assay: qHTS Assay for Lipid Storage Modulators in Drosophila S3 Cells;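 as to cell number change: cells counted by Cell Tracker Red CMTPX staining in the red channel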
# Details: BODIPY lipid droplet fluorescence, 18-24 h; for cell number change: measured here: cell count max response, cells fed with added oleic acid
# Outline: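 Laser-scanning cytometry quantifies lipid droplet accumulation (500–530 nm total intensity; droplet/cell object ratio) in oleic acid-fed (400 uM added) Drosophila S3 cells treated with a concentration series. 20 uM Triacsin C defined 100% inhibition.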
# [1] = measured here: cell number channel AC50, cells fed with added oleic acid
# [2] = measured here: lipid fluorescence (Fed channel) AC50, cells fed with added oleic acid
SMILES,AC50 [1],cell number change [%],AC50 [2]
N#CC1=C(N)N(c2ccccc2)C(=O)C1,"1.64 µM [rising, partial curve, poor fit]",–,–
O=S(=O)(c1cccc2nsnc12)N1CCc2ccccc2C1,"16.4 µM [rising, single point]",30.5,–
CC(C)CN(C(=O)COC(=O)COc1ccc2c(c1)CCC2)c1c(N)n(Cc2ccccc2)c(=O)[nH]c1=O,"0.13 µM [falling, full curve, poor fit]",-20.3,–
COc1cccc(OCC(=O)N(Cc2nc(-c3ccc(Cl)cc3)no2)C(C)C)c1,–,–,"2.06 µM [rising, partial curve]"
CN(C)S(=O)(=O)n1cnc([C@@H]2[C@H]3C(=O)OC[C@@H]3C[C@@]23N=CN(Cc2ccccc2)C3=O)c1,"0.146 µM [falling, single point]",4.08,–
ClC(Cl)(c1nnnn1-c1ccccc1)c1nnnn1-c1ccccc1,"23.1 µM [falling, partial curve]",-85.3,"16.4 µM [falling, partial curve]"
Cc1ccc(-c2cc(Cc3ccc(N(C)C)cc3)c(=O)[nH]n2)cc1,–,-2.17,–
COc1c(C)cc(Br)cc1C(=O)O,"29.1 µM [falling, single point]",-117,–
CCN(CC(=O)Nc1ccc2c(c1)OCCO2)c1nc(-c2cccnc2)nc2ccccc12,–,-11.5,"4.11 µM [rising, single point]"
Fc1ccc2cnc(-c3ccccc3)c(-c3ccc(C(F)(F)F)cc3)c2c1,–,-26.1,"23.1 µM [falling, single point]"
CCOC(=O)/C(=N\Nc1ccccc1)S(=O)(=O)c1ccccc1,"6.51 µM [rising, single point]",–,–
CC1Cc2ccccc2N1CC(=O)Nc1ccc(Cl)c(S(=O)(=O)N(C)C)c1 (configuration not stated),"14.6 µM [rising, partial curve, poor fit]",52.8,"16.4 µM [rising, partial curve]"
O=C(COC(=O)CCc1ccc(S(=O)(=O)N2CCOCC2)cc1)NCc1ccc(Cl)cc1,"0.326 µM [falling, partial curve, poor fit]",-28,–
CCn1c2ccccc2c2nnc(SCc3cc(=O)n4ccsc4n3)nc21,–,-12.4,"2.59 µM [rising, single point]"
O=C(Nc1sc2c(c1C(=O)NCCCO)CCCC2)c1ccccc1,"10.3 µM [falling, partial curve, poor fit]",-45,"18.4 µM [falling, partial curve, poor fit]"
COc1ccc(N(C)C(=O)CCS(=O)(=O)c2cccc3nsnc23)cc1,"0.291 µM [falling, full curve, poor fit]",–,–
CCN(CC)S(=O)(=O)c1ccc(OC)c(NC(=O)Cc2cccs2)c1,–,–,"0.0651 µM [rising, full curve, poor fit]"
COc1ccc2nc(NC(=O)CSCc3c(C)noc3C)sc2c1,–,–,"23.1 µM [rising, single point]"
Cc1nc(-c2coc3cc(O)c(C)cc3c2=O)cs1,"1.03 µM [falling, full curve]",–,"6.51 µM [falling, single point]"

# Looked up above.
# cell number change [%], Fc1ccc2cnc(-c3ccccc3)c(-c3ccc(C(F)(F)F)cc3)c2c1 is entered as -26.1
# AC50 [1], O=C(COC(=O)CCc1ccc(S(=O)(=O)N2CCOCC2)cc1)NCc1ccc(Cl)cc1 is entered as 0.326 µM [falling, partial curve, poor fit]

# More structures follow.

SMILES,AC50 [1],cell number change [%],AC50 [2]
Cc1ccccc1NC(=O)C1CCCN(C(=O)NCc2ccccc2)C1 (configuration not stated),"29.1 µM [rising, single point]",34.9,–
Cc1cccnc1NC(=O)c1ccc(S(=O)(=O)N2CCCCCC2)cc1,"0.164 µM [falling, full curve, poor fit]",50,–
c1ccc2c(c1)cnc1ccccc12,–,23.4,–
CC1=C(Sc2ccccn2)C(=O)NC(C)(C)C1,–,-4.79,"29.1 µM [falling, single point]"
CS(=O)(=O)NC1CCN(Cc2ccccc2)CC1,–,-1.83,"14.6 µM [falling, partial curve, poor fit]"
CCc1ccc(C(C(=O)NC2CCCC2)N(C(=O)/C=C/C(=O)Nc2cc(C)on2)c2ccccc2C)cc1 (configuration not stated),–,–,"0.82 µM [rising, partial curve]"
CC1(C)CC(=O)C(N=Nc2cc3c(cc2[N+](=O)[O-])OCCO3)=C(O)C1,"4.61 µM [rising, full curve]",63.7,–
Cc1cc(C)c(C)c(S(=O)(=O)N2CCC(C(=O)Nc3ccc(S(=O)(=O)N4CCOCC4)cc3)CC2)c1C,"23.1 µM [rising, single point]",48.7,"11.6 µM [falling, partial curve]"
COc1ccc(OC)c(-c2csc(NC(=O)Cc3ccc(F)cc3)n2)c1,–,16.7,"29.1 µM [rising, single point]"
Cc1cc(C(=O)NC2CC(C)(C)Cc3c2cnn3-c2ccc(F)cc2)nn1C (configuration not stated),"25.9 µM [falling, partial curve]",-58.2,–
COc1ccc(NC(=O)c2ccc(COCC(F)(F)F)cc2)cc1OC,–,11.7,"4.11 µM [rising, full curve, poor fit]"
CCn1c(C)cc(/C=C2/NC(=O)N(c3ccccc3)C2=O)c1C,"6.51 µM [rising, single point]",–,–
Cc1sc2ncnc(N3CCC(C(=O)N(C)CC(=O)Nc4ccc(Cl)c(C(F)(F)F)c4)CC3)c2c1C,"9.2 µM [falling, partial curve, poor fit]",-40.2,–
COc1ccccc1NS(=O)(=O)c1cccc(C(=O)OCC(=O)Nc2cc(C)on2)c1,–,0.279,"0.731 µM [rising, single point]"
O=C(O)c1cccc(-c2ccc(/C=N/n3cnnc3)o2)c1,–,–,"29.1 µM [rising, single point]"
COc1ccc(COn2nnc3ccc(S(=O)(=O)N4CCOCC4)cc32)cc1F,"1.84 µM [falling, partial curve, poor fit]",-75,–
C=CCn1cc(C(=O)N2CCN(C)CC2)c(=O)c2cc(S(=O)(=O)N(CC)CC)ccc21,–,20.2,"0.58 µM [rising, partial curve, poor fit]"
CCCNC(=O)C(CC)NC(=O)c1ccc(C#N)cc1 (configuration not stated),"29.1 µM [falling, single point]",-53,–
